Our source for the binding values is PMC12079886.

By UniProt entry, the sequences of proteins in these tests, tags left out. Where a name states a change or a piece, a line headed by the entry shows the natural chain unless it says otherwise.
UniProt Q99104: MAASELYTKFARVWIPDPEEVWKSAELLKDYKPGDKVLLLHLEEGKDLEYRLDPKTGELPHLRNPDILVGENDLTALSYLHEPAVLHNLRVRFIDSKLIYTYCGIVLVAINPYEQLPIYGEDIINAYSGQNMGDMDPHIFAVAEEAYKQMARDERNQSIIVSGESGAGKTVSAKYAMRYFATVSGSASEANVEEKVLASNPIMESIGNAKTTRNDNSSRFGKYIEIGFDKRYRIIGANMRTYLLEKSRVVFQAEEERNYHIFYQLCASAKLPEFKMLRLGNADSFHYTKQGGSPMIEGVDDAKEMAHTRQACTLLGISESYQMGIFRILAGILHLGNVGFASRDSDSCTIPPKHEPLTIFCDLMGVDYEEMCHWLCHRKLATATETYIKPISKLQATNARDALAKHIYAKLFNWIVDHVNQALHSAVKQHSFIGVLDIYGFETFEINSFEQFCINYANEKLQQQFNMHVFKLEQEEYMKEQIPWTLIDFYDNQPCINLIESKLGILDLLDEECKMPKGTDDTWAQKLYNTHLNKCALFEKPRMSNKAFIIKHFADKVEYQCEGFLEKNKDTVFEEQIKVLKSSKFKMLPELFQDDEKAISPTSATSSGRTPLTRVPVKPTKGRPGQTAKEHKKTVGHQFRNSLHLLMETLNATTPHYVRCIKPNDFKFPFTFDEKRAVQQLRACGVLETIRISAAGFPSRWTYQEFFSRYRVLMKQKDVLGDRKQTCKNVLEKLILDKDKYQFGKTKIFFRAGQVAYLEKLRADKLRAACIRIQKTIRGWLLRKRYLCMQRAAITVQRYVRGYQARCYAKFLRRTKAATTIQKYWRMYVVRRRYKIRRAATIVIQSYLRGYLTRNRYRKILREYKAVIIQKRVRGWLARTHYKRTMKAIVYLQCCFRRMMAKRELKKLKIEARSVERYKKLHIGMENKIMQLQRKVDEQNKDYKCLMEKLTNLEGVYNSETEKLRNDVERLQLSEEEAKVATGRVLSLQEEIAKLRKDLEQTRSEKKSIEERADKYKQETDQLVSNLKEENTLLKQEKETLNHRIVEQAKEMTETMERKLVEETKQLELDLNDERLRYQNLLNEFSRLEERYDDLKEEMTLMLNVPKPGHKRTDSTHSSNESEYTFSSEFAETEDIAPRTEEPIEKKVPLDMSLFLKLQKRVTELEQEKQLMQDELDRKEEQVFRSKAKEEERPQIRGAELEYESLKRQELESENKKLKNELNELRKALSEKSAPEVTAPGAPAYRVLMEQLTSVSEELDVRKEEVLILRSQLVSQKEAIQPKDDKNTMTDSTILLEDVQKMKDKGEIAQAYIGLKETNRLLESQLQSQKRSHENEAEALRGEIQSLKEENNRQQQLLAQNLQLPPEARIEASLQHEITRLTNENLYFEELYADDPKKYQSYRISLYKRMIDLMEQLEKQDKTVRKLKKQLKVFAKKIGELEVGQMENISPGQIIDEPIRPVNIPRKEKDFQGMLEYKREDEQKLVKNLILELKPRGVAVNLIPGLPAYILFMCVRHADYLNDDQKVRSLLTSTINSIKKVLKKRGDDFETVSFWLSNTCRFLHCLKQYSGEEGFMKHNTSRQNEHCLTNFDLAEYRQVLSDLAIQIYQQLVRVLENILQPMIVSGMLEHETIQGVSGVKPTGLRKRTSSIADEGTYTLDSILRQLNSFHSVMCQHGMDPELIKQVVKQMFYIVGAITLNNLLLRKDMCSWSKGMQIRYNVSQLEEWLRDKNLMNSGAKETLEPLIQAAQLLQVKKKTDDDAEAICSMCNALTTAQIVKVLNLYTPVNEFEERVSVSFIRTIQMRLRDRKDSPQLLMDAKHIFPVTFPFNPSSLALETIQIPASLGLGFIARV
UniProt Q9Z1S5: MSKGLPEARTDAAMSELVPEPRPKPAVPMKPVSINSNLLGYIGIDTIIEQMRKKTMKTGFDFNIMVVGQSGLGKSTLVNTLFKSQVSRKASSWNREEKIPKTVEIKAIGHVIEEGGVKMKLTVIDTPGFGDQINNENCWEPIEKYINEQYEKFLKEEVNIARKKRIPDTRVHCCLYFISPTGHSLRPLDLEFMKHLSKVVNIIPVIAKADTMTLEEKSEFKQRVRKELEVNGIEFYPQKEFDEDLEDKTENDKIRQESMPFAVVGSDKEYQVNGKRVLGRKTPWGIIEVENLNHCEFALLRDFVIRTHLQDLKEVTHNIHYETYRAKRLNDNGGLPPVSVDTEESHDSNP

Results are given in words; binding and its absence hold for the method and conditions named. In cells and extracts the contact can be indirect. Some results given as binding are weak or reduced against the parent protein; the word gives no strength.

This assay concerns the target myosin-Va (MYO5A) (UniProt Q99104). The assay is described as follows: co-IP; cell lysate co-expressing MYO5A and SEPT3-WT or T211E; which protein was precipitated is not told in the main text.

As for “septin 3 phosphomimetic mutant T211E (SEPT3-T211E) (from UniProt Q9Z1S5 1-350)”, the binding entry was “binds”.
